Experimental data: publication PMC10878149
Results are given in words; binding and its absence hold for the method and conditions named. In cells and extracts the contact can be indirect. Some binding calls cover weakened binding; strength is not graded here. For some assays here: Tags and fused reporters may be left off the sequences shown. Blank lines part the entries; values can stand above or below the molecule they belong to.

Key:
[1] = target: COP9 signalosome subunit 5 (human (endogenous in A2780/DDP)) (UniProt Q92905); experiment: co-IP; endogenous proteins; A2780/DDP whole-cell protein in NP40 lysis buffer, IP with anti-CSN5, anti-CRT or control IgG overnight at 4 °C, protein A/G magnetic beads, washed with PBST, immunoblot; also cells with or without CSN5 ablation exposed to cisplatin (20 μM)
HA-OGA = target: T1, HA-OGA (UniProt O60502); experiment: co-IP; HEK293T co-transfected with Flag-CSN5 and HA-OGA, or His-CRT and HA-OGA, 24 h; reciprocal IP-IB with the indicated antibodies
T1 sequence: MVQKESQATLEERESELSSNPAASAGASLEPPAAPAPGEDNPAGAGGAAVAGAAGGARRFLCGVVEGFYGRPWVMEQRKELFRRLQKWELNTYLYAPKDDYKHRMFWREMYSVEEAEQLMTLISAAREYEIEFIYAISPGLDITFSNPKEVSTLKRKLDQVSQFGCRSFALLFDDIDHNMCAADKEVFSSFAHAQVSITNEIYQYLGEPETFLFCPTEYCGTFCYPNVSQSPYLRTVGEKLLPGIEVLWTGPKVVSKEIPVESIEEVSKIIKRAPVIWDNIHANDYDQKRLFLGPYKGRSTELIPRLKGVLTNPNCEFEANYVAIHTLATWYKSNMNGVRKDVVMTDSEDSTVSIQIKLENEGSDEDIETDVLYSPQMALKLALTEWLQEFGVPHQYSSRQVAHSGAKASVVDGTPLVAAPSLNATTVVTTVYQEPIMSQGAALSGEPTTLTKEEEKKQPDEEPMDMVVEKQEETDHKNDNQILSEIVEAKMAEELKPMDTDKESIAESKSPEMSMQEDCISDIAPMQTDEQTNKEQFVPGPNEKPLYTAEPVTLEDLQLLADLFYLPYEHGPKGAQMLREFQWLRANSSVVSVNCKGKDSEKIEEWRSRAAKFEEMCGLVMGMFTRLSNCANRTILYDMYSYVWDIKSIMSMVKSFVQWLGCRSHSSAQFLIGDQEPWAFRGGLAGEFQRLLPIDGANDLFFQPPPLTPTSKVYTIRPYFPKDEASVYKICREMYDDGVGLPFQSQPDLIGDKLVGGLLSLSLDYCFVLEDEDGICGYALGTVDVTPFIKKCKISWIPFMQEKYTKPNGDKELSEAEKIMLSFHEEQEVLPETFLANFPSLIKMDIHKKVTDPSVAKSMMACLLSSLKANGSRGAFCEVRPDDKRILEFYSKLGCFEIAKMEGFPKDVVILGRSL

[2] = target: Calreticulin (human (endogenous in A2780/DDP)) (UniProt P27797); experiment: co-IP; endogenous proteins; A2780/DDP whole-cell protein in NP40 lysis buffer, IP with anti-CSN5, anti-CRT or control IgG overnight at 4 °C, protein A/G magnetic beads, washed with PBST, immunoblot; also cells with or without CSN5 ablation exposed to cisplatin (20 μM)
His-CRT = His-CRT (UniProt P27797); experiment: co-IP; HEK293T co-transfected with Flag-CSN5 and HA-OGA, or His-CRT and HA-OGA, 24 h; reciprocal IP-IB with the indicated antibodies

binding [1]: binds
Molecule: Calreticulin (from UniProt P27797 18-417)

binding (HA-OGA): binds
Molecule: Flag-CSN5 (from UniProt Q92905 1-334)

binding [2]: binds | binding [1]: binds
B1: O-GlcNAcase (enzyme, UniProt O60502 1-916)
chain: MVQKESQATLEERESELSSNPAASAGASLEPPAAPAPGEDNPAGAGGAAVAGAAGGARRFLCGVVEGFYGRPWVMEQRKELFRRLQKWELNTYLYAPKDDYKHRMFWREMYSVEEAEQLMTLISAAREYEIEFIYAISPGLDITFSNPKEVSTLKRKLDQVSQFGCRSFALLFDDIDHNMCAADKEVFSSFAHAQVSITNEIYQYLGEPETFLFCPTEYCGTFCYPNVSQSPYLRTVGEKLLPGIEVLWTGPKVVSKEIPVESIEEVSKIIKRAPVIWDNIHANDYDQKRLFLGPYKGRSTELIPRLKGVLTNPNCEFEANYVAIHTLATWYKSNMNGVRKDVVMTDSEDSTVSIQIKLENEGSDEDIETDVLYSPQMALKLALTEWLQEFGVPHQYSSRQVAHSGAKASVVDGTPLVAAPSLNATTVVTTVYQEPIMSQGAALSGEPTTLTKEEEKKQPDEEPMDMVVEKQEETDHKNDNQILSEIVEAKMAEELKPMDTDKESIAESKSPEMSMQEDCISDIAPMQTDEQTNKEQFVPGPNEKPLYTAEPVTLEDLQLLADLFYLPYEHGPKGAQMLREFQWLRANSSVVSVNCKGKDSEKIEEWRSRAAKFEEMCGLVMGMFTRLSNCANRTILYDMYSYVWDIKSIMSMVKSFVQWLGCRSHSSAQFLIGDQEPWAFRGGLAGEFQRLLPIDGANDLFFQPPPLTPTSKVYTIRPYFPKDEASVYKICREMYDDGVGLPFQSQPDLIGDKLVGGLLSLSLDYCFVLEDEDGICGYALGTVDVTPFIKKCKISWIPFMQEKYTKPNGDKELSEAEKIMLSFHEEQEVLPETFLANFPSLIKMDIHKKVTDPSVAKSMMACLLSSLKANGSRGAFCEVRPDDKRILEFYSKLGCFEIAKMEGFPKDVVILGRSL

binding (His-CRT): binds
B2: HA-OGA (enzyme, UniProt O60502 1-916)
chain: MVQKESQATLEERESELSSNPAASAGASLEPPAAPAPGEDNPAGAGGAAVAGAAGGARRFLCGVVEGFYGRPWVMEQRKELFRRLQKWELNTYLYAPKDDYKHRMFWREMYSVEEAEQLMTLISAAREYEIEFIYAISPGLDITFSNPKEVSTLKRKLDQVSQFGCRSFALLFDDIDHNMCAADKEVFSSFAHAQVSITNEIYQYLGEPETFLFCPTEYCGTFCYPNVSQSPYLRTVGEKLLPGIEVLWTGPKVVSKEIPVESIEEVSKIIKRAPVIWDNIHANDYDQKRLFLGPYKGRSTELIPRLKGVLTNPNCEFEANYVAIHTLATWYKSNMNGVRKDVVMTDSEDSTVSIQIKLENEGSDEDIETDVLYSPQMALKLALTEWLQEFGVPHQYSSRQVAHSGAKASVVDGTPLVAAPSLNATTVVTTVYQEPIMSQGAALSGEPTTLTKEEEKKQPDEEPMDMVVEKQEETDHKNDNQILSEIVEAKMAEELKPMDTDKESIAESKSPEMSMQEDCISDIAPMQTDEQTNKEQFVPGPNEKPLYTAEPVTLEDLQLLADLFYLPYEHGPKGAQMLREFQWLRANSSVVSVNCKGKDSEKIEEWRSRAAKFEEMCGLVMGMFTRLSNCANRTILYDMYSYVWDIKSIMSMVKSFVQWLGCRSHSSAQFLIGDQEPWAFRGGLAGEFQRLLPIDGANDLFFQPPPLTPTSKVYTIRPYFPKDEASVYKICREMYDDGVGLPFQSQPDLIGDKLVGGLLSLSLDYCFVLEDEDGICGYALGTVDVTPFIKKCKISWIPFMQEKYTKPNGDKELSEAEKIMLSFHEEQEVLPETFLANFPSLIKMDIHKKVTDPSVAKSMMACLLSSLKANGSRGAFCEVRPDDKRILEFYSKLGCFEIAKMEGFPKDVVILGRSL
